Test results reported in patent US20210290602A1.
No constants are given. Whether binding was seen depends on the method and setting. In cells and extracts the contact can be indirect. Some results given as binding are weak or reduced against the parent protein; the word gives no strength.

Amino acid sequences for entries named in this document (tags omitted).
UniProt P60880: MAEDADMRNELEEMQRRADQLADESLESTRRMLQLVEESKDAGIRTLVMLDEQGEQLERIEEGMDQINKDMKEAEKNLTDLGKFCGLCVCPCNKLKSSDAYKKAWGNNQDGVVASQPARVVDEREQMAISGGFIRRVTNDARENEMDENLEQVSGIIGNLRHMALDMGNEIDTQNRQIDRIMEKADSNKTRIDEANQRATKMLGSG

Molecular target: SNAP-25 (endogenous, human induced neurons) (human) (UniProt P60880)
Assay: co-immunoprecipitation with anti-SNAP-25 antibody from iN extracts, quantitative immunoblot

B1: endogenous CSPα of WT induced neurons (iNs) from an unaffected individual (protein, human, UniProt Q9H3Z4 1-198, looked up)
chain: MADQRQRSLSTSGESLYHVLGLDKNATSDDIKKSYRKLALKYHPDKNPDNPEAADKFKEINNAHAILTDATKRNIYDKYGSLGLYVAEQFGEENVNTYFVLSSWWAKALFVFCGLLTCCYCCCCLCCCFNCCCGKCKPKAPEGEETEFYVSPEDLEAQLQSDEREATDTPIVIQPASATETTQLTADSHPSYHTDGFN
modifications: Cys-string palmitoylated
  binding: binds
